# Assay results reported in PubChem BioAssay AID1259415 (National Center for Advancing Translational Sciences (NCATS), 2018).
# Where “and” joins values, the source holds several entries; their conditions need not be identical. Equal values may be shown once. Screen size: about 410,000 compounds; about 18,000 (4.4%) were called active. The shares of active, inactive and inconclusive entries below differ from those in the screen. Rule as the data show it: active = activity change below about -60%; inconclusive = no clear call, values can overlap the other calls; inactive = above about -39%.
# Assay: qHTS Assay for inhibitors of the human cytomegalovirus (HCMV)
# Settings: HFF cells, HCMV-luciferase reporter, 72 h; at 57.5 µM; stronger effect = lower value
# Summary of the method: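 Screen run at 2 compound doses on HFFs infected with reporter HCMV, MOI 1 PFU/cell. Luciferase activity from cell lysates at 72 h post infection gave inhibition relative to buffer-only and Salinomycin wells.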
# % is scaled to controls: 0 for no effect and ±100 for the full control effect.
row,SMILES,"activity change, negative = inhibition"
1,Cc1ccc(C(=O)NC(=S)NCc2cccnc2)cc1C,inconclusive: -50.5%
2,O=C(CNC(=O)c1cccs1)N/N=C/c1ccccc1[N+](=O)[O-],inconclusive: -56.3%
3,CCOC(=O)C1(Cc2cccc(OC)c2)CCCN(C(=O)c2ccc(OC)o2)C1 (stereo unspecified),inactive: -14.1%
4,COc1ccc(S(=O)(=O)N2CCOCC2)cc1NC(=O)COC(=O)C1CCC1,inconclusive: -56.1%
5,CC(=O)Nc1nc(-c2ccc3c(c2)CCO3)cs1,active: -76.2%
6,CCOC(=O)N1CCN(CC(=O)Nc2c(C(=O)OC)[nH]c3ccc(Cl)cc23)CC1,inconclusive: -54.4%
7,Cc1ccc(OCCCNCCO)c(Br)c1,inconclusive: -53.2%
8,C=CCn1c(SCc2ccccc2F)nc2cc(C(=O)O)ccc2c1=O,inconclusive: -52.7%
9,COC(=O)c1sc(-c2ccccc2)cc1NC(=O)c1ccccc1,inconclusive: -42.6%
10,Cc1ccc(CN2CCC(CNC(=O)Nc3ccc(C)c(C)c3)C2)cc1 (stereo unspecified),inactive: -33.9%
11,CCN1CCCC1CNC(=O)Cn1nc(C)n2c(cc3cc(C)ccc32)c1=O (stereo unspecified),inconclusive: -43.6%
12,N#Cc1ccccc1OCC(O)CS(=O)(=O)c1ccccc1 (stereo unspecified),inconclusive: -49.7%
13,CC1=CC(C)(C)Nc2ccc(OC(=O)C(Cc3ccccc3)N3C(=O)C4CCCCC4C3=O)cc21 (stereo unspecified),inconclusive: -43.6%
14,Cc1ccc(C(=O)N2CCCC(C(=O)c3cc(F)ccc3F)C2)s1 (stereo unspecified),inconclusive: -49.4%
15,CC(C)c1ccc(/C=N/NC(=O)C(=O)NCCCN2CCOCC2)cc1,active: -61.6%
16,COc1ccc(N(CC(=O)NCc2ccc(Cl)cc2)S(=O)(=O)c2c(C)n[nH]c2C)cc1,inconclusive: -52.4%
17,O=C(CN(c1ccccc1)S(=O)(=O)c1ccc(F)cc1)NC1CCCCCC1,inactive: -16.7%
18,CN1CCC(N(C)C(=O)NC2CCCCC2)CC1,inconclusive: -55.4%
19,CC(C)CNC(=O)c1cc2nc3c(c(C(F)(F)F)n2n1)CCc1ccccc1-3,active: -66.9%
20,O=C1NC(Cc2ccccc2)c2nc3cc(Cl)ccc3c(=O)n2-c2ncccc21 (stereo unspecified),active: -67%
21,COc1cc(CNCCN(C)C)ccc1OCc1c(F)cccc1Cl,inconclusive: -47%
22,Cc1nc2nc(C)c(NS(=O)(=O)c3ccc(CC(C)C)cc3)c(=O)n2[nH]1,inactive: -1.98% and inconclusive: -45.4%

row,SMILES,"activity change, negative = inhibition"
1,Nc1c([N+](=O)[O-])cc(F)c(N2CCNCC2)c1Br,inconclusive: -49%
2,CCC(C)(C)n1nnnc1C(c1cc2cc(C)cc(C)c2[nH]c1=O)N1CCN(Cc2ccc3c(c2)OCO3)CC1 (stereo unspecified),active: -60.3%
3,COc1ccc(C(=O)C(=O)N2CCC(Cc3ccccc3)CC2)cc1OC,inconclusive: -47.5%
4,CCOC(=O)c1cnc2ccc(C)cc2c1Sc1ccccc1,inconclusive: -58%
5,CCC(C)Oc1ccc(/C=C/c2[nH]c(=O)[nH]c(=O)c2[N+](=O)[O-])cc1OC (stereo unspecified),inconclusive: -52.3%
6,COc1ccccc1CN1CN(S(=O)(=O)c2ccccc2)c2nc3ccccc3nc21,inconclusive: -48.9%
7,CCN(Cc1ccccc1)S(=O)(=O)c1ccc2c(c1)NC(=O)CS2,inconclusive: -42.5%
8,COC(CNc1ncnc2c1cnn2C)OC,inconclusive: -41.4%
9,CCOC(=O)N1CCN(CC(=O)Nc2cc(OCC)ccc2OCC)CC1,inactive: -29%
10,O=C(Nc1ccc(-c2nc3ccccc3[nH]2)cc1)c1cccc(N2C(=O)CCC2=O)c1,inactive: -28.2%
11,O=C(Cn1c(NCCO)nc2ccccc21)c1ccccc1,inconclusive: -51.2%
12,CCOC(=O)c1cc(-c2ccccc2)n(CCCC(=O)Nc2ccccc2C)c1C,inconclusive: 0%
13,CCN1CCN(C(=O)C2CCCN(S(=O)(=O)c3cc(Cl)ccc3Cl)C2)CC1 (stereo unspecified),inconclusive: -52.3%
14,O=C(Cc1ccc(O)cc1)N/N=C/c1cccnc1,inactive: 55.1%
15,CCN(CC)S(=O)(=O)c1ccc2oc(C(=O)NCc3ccc(F)cc3)c(C)c2c1,inconclusive: -40.2%
16,CCOC(=O)N/N=C(/C)c1ccc(N2C(=O)C3CCCCC3C2=O)cc1 (stereo unspecified),inactive: -12.9%
17,CC(C)SCCCOc1ccc(C(C)(C)C)cc1,active: -86.1%
18,CCOC(=O)c1c(NC(=O)c2ccco2)sc2c1CCCCC2,inconclusive: -53.5%
19,COc1ccccc1NC(=S)N1C2CCC1CC(NC(=O)NC13CC4CC(CC(C4)C1)C3)C2 (stereo unspecified),inconclusive: -40.4%
20,O=C(COc1ccccc1)Nc1ccc(S(=O)(=O)NCc2ccco2)cc1,inactive: 9.14%
21,CCOc1cccc(CC(=O)N2CCc3c([nH]c4ccccc34)C2c2ccc(SC)cc2)c1OCC (stereo unspecified),inactive: 19.9%
22,O=C(Nc1ccc2ncccc2c1)Nc1ccc2ncccc2c1,inconclusive: -57%

# Not a retest: an excerpt of the list.
row,SMILES,"activity change, negative = inhibition"
3,COc1ccc(C(=O)C(=O)N2CCC(Cc3ccccc3)CC2)cc1OC,inconclusive: -47.5%
4,CCOC(=O)c1cnc2ccc(C)cc2c1Sc1ccccc1,inconclusive: -58%
5,CCC(C)Oc1ccc(/C=C/c2[nH]c(=O)[nH]c(=O)c2[N+](=O)[O-])cc1OC (stereo unspecified),inconclusive: -52.3%
6,COc1ccccc1CN1CN(S(=O)(=O)c2ccccc2)c2nc3ccccc3nc21,inconclusive: -48.9%
7,CCN(Cc1ccccc1)S(=O)(=O)c1ccc2c(c1)NC(=O)CS2,inconclusive: -42.5%
8,COC(CNc1ncnc2c1cnn2C)OC,inconclusive: -41.4%
9,CCOC(=O)N1CCN(CC(=O)Nc2cc(OCC)ccc2OCC)CC1,inactive: -29%
10,O=C(Nc1ccc(-c2nc3ccccc3[nH]2)cc1)c1cccc(N2C(=O)CCC2=O)c1,inactive: -28.2%
11,O=C(Cn1c(NCCO)nc2ccccc21)c1ccccc1,inconclusive: -51.2%
12,CCOC(=O)c1cc(-c2ccccc2)n(CCCC(=O)Nc2ccccc2C)c1C,inconclusive: 0%
13,CCN1CCN(C(=O)C2CCCN(S(=O)(=O)c3cc(Cl)ccc3Cl)C2)CC1 (stereo unspecified),inconclusive: -52.3%
14,O=C(Cc1ccc(O)cc1)N/N=C/c1cccnc1,inactive: 55.1%
15,CCN(CC)S(=O)(=O)c1ccc2oc(C(=O)NCc3ccc(F)cc3)c(C)c2c1,inconclusive: -40.2%
16,CCOC(=O)N/N=C(/C)c1ccc(N2C(=O)C3CCCCC3C2=O)cc1 (stereo unspecified),inactive: -12.9%
17,CC(C)SCCCOc1ccc(C(C)(C)C)cc1,active: -86.1%
18,CCOC(=O)c1c(NC(=O)c2ccco2)sc2c1CCCCC2,inconclusive: -53.5%
19,COc1ccccc1NC(=S)N1C2CCC1CC(NC(=O)NC13CC4CC(CC(C4)C1)C3)C2 (stereo unspecified),inconclusive: -40.4%
20,O=C(COc1ccccc1)Nc1ccc(S(=O)(=O)NCc2ccco2)cc1,inactive: 9.14%
21,CCOc1cccc(CC(=O)N2CCc3c([nH]c4ccccc34)C2c2ccc(SC)cc2)c1OCC (stereo unspecified),inactive: 19.9%
22,O=C(Nc1ccc2ncccc2c1)Nc1ccc2ncccc2c1,inconclusive: -57%

# (listing goes on)

row,SMILES,"activity change, negative = inhibition"
1,COc1cc(-c2noc(CCCC(=O)NCc3ccccc3)n2)cc(OC)c1OC,inactive: 65.4%
2,CSc1ccc(C(O)c2ncc(-c3cccc(F)c3)[nH]2)cc1 (stereo unspecified),inconclusive: -40.5%
3,CCOc1ccc(NC(=O)CN(C)C(=O)c2cc3c(s2)CCC(C)C3)cc1OCC (stereo unspecified),inconclusive: 0%
4,O=C(Cn1ccc2cc(S(=O)(=O)N3CCCCC3)ccc21)NCc1ccccc1Cl,inconclusive: -51.9%
5,CC(C)c1nnc(N2C(=O)C(O)=C(C(=O)c3cccs3)C2c2ccccc2)s1 (stereo unspecified),inactive: 7.01%
6,COc1ccccc1CNc1ncnc2c1nnn2Cc1ccccc1,inactive: 53.4%
7,O=C(NCCO)c1nc(NCCO)c2ccccc2n1,inactive: -11.6%
8,Cc1no[n+]([O-])c1COc1cccc(/C=N/Nc2nncn2N)c1,active: -81.7%
9,CC1CCCCN1S(=O)(=O)c1ccc(NC(=O)c2cccs2)cc1 (stereo unspecified),inactive: -25%
10,CC1=C2C(=O)C3C(CC=C4CC(OC5OC(O)C(O)C(O)C5CO)CCC43C)C2CCC12OC1CC(C)CNC1C2C (stereo unspecified),inconclusive: -47%
11,O=C(Oc1ccc2c(=O)c(Cl)coc2c1)c1cccnc1,inactive: -0.0972%
12,Oc1oc(C=Nc2ccc(F)cc2F)c2ccccc12,inconclusive: -49.4%
13,COc1ccc(-c2cc3nc(-c4ccccc4)cc(N4CCC(O)CC4)n3n2)cc1,inconclusive: -49.2%
14,COCCNc1nc(NCCN2CCNC2=O)c2sc(-c3ccccc3)cc2n1,inactive: 31.7%
15,CCOC(=O)N1CCN(C(=O)C2CCN(S(=O)(=O)CC)CC2)CC1,inactive: -1.13%
16,O=C(Nc1cccc([N+](=O)[O-])c1)c1cc2ccccc2cc1O,active: -101%
17,CCOC(=O)N1CCC(NC(=O)c2cnn(-c3ccc(OC)cc3)c2C2CCN(C(=O)OC(C)(C)C)CC2)CC1,inactive: 0%
18,Fc1ccc2[nH]c3c(N4CCSCC4)ncnc3c2c1,inconclusive: -58.5%
19,CCOC(=O)C(NC(=O)c1ccc(F)cc1)(Nc1sc2c(c1C(N)=O)CCC2)C(F)(F)F (stereo unspecified),inconclusive: -40.9%
20,COCCNC(=O)c1cc(-c2ccc(-c3ccccc3)cc2)nc2ccccc12,active: -77.2%
21,Cc1ccccc1C(=O)Nc1sc2c(c1C(=O)N1CCC(C)CC1)CCC(C)C2 (stereo unspecified),inactive: -1.2%
22,COc1cccc(C(=O)CC2(O)C(=O)N(Cc3ccccc3)c3ccccc32)c1 (stereo unspecified),inconclusive: -48.4%

row,SMILES,"activity change, negative = inhibition"
1,COc1cccc(-c2csc(N3CCN(S(=O)(=O)c4ccc(F)cc4)CC3)n2)c1,inconclusive: -48.8%
2,COc1ccc(OC)c(C(=O)CSc2nccc(-c3ccc(Br)cc3)n2)c1,inconclusive: -57.5%
3,Cc1c(C(=O)N2CCN(C(c3ccccc3)c3ccccc3)CC2)oc2ccccc12,inactive: -22.7%
4,O=C(CCc1nc2ccccc2c(=O)[nH]1)NNC(=O)COc1cccc(F)c1,inactive: -22.4%
5,COc1ccc(OC)c2c1C(=O)CC2C (stereo unspecified),inactive: 15.2%
6,CC(CNC(=O)c1ccc(Cn2c(=O)c3cccn3c3cccnc32)cc1)c1ccccc1 (stereo unspecified),inconclusive: -49.5%
7,C[C@@H]1CN([C@@H](C)CO)C(=O)CCCn2cc(nn2)CO[C@H]1CN(C)C(=O)CCC(F)(F)F,inactive: 5.01%
8,O=c1[nH]cnc2scc(-c3ccccc3)c12,inactive: -34%
9,COc1cc(CNC(=O)c2ccc3nc(Cc4ccccc4)oc3c2)cc(OC)c1OC,inconclusive: -40.1%
10,CCCS(=O)(=O)c1nc(S(=O)(=O)c2ccc(C)cc2)c(NCc2ccc3c(c2)OCO3)s1,inconclusive: -42.3%
11,COc1ccccc1NC(=O)Nc1cc(F)ccc1F,inconclusive: -47.8%
12,CCOC(=O)c1cn(CC(=O)Nc2ccc3c(c2)OCCO3)nn1,inconclusive: -50.7%
13,COC(=O)[C@]12CCCCC=C1N(CCc1ccc(OC)c(OC)c1)C(=O)[C@H](CC(=O)N1CCN(C(=O)c3ccco3)CC1)C2,inactive: -9.2%
14,O=C(/C=C/Nc1ccccc1O)c1ccco1,inactive: -8.78%
15,CCCCc1ccc(S(=O)(=O)NCCc2ccncc2)cc1,active: -63%
16,Cc1cc(C)c2c(N)c(-c3nnc(SCc4ccc(Cl)cc4)n3C)sc2n1,inconclusive: -51.7%
17,Cc1cc(-c2nnc(-c3ccccc3)c(-c3ccccc3)n2)c(C)o1,active: -65%
18,COc1ccc(C(=O)CSc2nnc(Cn3cnc4ccccc43)o2)cc1,inconclusive: -59.2%
19,CN(CC(=O)Nc1c(Cl)cccc1Cl)C(=O)c1ccc(-n2cncn2)c([N+](=O)[O-])c1,inactive: -7.91%
20,Cc1ccc(S(=O)(=O)NC(CC(C)C)C(=O)N2CCN(C/C=C/c3ccccc3)CC2)cc1 (stereo unspecified),inconclusive: -40.7%
